No constants are given. Whether binding was seen depends on the method and setting. In cells and extracts the contact can be indirect. Some binding calls cover weakened binding; strength is not graded here.

Sequences of proteins named here, by UniProt entry; tags and fusion partners are left off. A change or cut given only in a name is not applied to a line headed by its entry.
UniProt P60953: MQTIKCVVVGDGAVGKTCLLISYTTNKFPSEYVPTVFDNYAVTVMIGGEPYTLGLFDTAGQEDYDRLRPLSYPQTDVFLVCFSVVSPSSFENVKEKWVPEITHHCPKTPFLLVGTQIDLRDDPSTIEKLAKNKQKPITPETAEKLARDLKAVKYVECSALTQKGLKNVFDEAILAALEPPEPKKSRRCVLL
UniProt Q6XZF7: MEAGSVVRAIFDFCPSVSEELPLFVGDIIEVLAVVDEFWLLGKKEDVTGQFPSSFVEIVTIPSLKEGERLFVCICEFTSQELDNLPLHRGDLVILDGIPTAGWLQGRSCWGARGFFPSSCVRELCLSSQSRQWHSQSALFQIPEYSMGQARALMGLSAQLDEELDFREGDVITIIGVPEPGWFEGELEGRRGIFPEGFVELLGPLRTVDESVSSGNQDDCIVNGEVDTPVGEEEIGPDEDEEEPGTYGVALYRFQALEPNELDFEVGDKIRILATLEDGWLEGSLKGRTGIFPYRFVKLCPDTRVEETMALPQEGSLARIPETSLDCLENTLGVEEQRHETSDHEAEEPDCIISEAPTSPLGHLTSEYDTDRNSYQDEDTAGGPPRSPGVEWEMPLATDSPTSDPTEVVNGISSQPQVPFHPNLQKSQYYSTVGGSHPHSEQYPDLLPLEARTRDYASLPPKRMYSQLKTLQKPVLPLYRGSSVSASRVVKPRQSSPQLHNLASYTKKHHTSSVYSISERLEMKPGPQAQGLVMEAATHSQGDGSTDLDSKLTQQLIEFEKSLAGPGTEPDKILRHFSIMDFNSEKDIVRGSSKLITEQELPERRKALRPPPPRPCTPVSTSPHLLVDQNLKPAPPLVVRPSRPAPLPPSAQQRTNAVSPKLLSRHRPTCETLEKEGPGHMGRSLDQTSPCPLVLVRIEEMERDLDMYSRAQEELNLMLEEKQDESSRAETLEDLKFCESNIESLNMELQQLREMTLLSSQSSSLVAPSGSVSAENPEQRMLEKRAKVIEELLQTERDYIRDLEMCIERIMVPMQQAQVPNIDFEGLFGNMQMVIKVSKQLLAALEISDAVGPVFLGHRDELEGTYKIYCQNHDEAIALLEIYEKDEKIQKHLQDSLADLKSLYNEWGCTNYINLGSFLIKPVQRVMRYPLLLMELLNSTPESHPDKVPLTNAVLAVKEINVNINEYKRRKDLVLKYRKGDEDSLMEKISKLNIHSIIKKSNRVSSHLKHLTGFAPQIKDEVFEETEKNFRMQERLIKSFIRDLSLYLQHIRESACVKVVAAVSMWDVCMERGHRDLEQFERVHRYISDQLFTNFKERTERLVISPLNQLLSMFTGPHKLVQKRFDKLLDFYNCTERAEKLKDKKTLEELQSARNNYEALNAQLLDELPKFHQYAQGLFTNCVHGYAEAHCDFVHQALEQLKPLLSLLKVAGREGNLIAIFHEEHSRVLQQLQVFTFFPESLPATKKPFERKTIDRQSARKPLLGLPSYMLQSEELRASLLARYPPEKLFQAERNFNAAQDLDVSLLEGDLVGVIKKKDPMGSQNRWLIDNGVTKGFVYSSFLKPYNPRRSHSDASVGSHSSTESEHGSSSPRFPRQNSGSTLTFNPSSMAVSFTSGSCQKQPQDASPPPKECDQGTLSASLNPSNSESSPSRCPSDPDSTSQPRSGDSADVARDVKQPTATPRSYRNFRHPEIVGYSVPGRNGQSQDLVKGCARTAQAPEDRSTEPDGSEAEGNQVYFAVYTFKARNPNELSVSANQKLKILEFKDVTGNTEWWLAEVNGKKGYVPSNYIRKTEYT

This passage reports binding results from paper PMC4735695.

The assay has as its target GST-Cdc42-G15A (UniProt P60953). Description: pull-down; GST-Cdc42-G15A on beads; lysates of HEK293T cells transfected with HA-Tuba (WT or YF mutant; with or without Flag-Shp2-E76G), lysis buffer 50 mM HEPES pH 7.5, 1% Triton X-100, 150 mM NaCl, 20 mM NaF, 1 mM Na3VO4, 1 mM DTT; precleared with GST beads 10 min at 4 °C; precipitated HA-Tuba seen by western blot with HA antibody; read by the paper as GEF activity; only the target purified. Background: In western blotting, separated proteins are transferred to a membrane and probed.

As to “HA-Tuba Y430F/Y515F mutant (from UniProt Q6XZF7 1-1577)”, the binding result was “binds weakly”.
